These are yes or no findings as the source states them, for the method shown. Binding seen in cells or lysates may run through a third protein. A yes stands for co-enrichment or nearness to the bait. Other partners may have been found.
Biological target: FLAG-STING, in reconstituted Sting-/- MEFs (mouse)
Test: affinity purification with mass spectrometry

Binder | binding
Ablim1 (protein, UniProt Q8K4G5 1-861) MPSLLGLKCLGKLCSSEIGKVPSPERASLRNSHRRLLIEDLSVPETPDPAHRRRGTVIHLVYLYSAGCGPPELRFSSYDPSVAHPQDPHHSSEKPVIHCHKCGEPCKGEVLRVQTKHFHIKCFTCKVCGCDLAQGGFFIKNGDYLCTLDYQRMYGTRCHGCGEFVEGEVVTALGKTYHPNCFACTICKRPFPPGDRVTFNGRDCLCQLCAQPMSSSPKEASCSSNCAGCGRDIKNGQALLALDKQWHLGCFKCKSCGKVLTGEYISKDGSPYCEKDYQGLFGVKCEACHQFITGKVLEAGDKHYHPSCARCSRCNQMFTEGEEMYLQGSTVWHPDCKQSTKTEEKLRPPNIPRSSSDFFYPKSLIRRTGRSPALQLLSPPCLTNSNKNPRQPTRTSSESIYSRPGSSIPGSPGHTIYAKVDNEILDYKDLAAIPKVKAIYDIERPDLITYEPFYTSGYEDKQERQSLGESPRTLSPTPSAEGYQDVRDRMIHRSTSQGSINSPVYSRHSYTPTTSRSPQHFHRPELLSPGVHRWSPLRTSSFSSTHSDSRPNPPFRHHFLPHVKGNEPSSGRNSPLPYRPDSRPLTPTYAQAPKHFHVPDQGINIYRKPPIYKQHAALAAQSKASEDIIKFSKFPAAQAPDPNEIPKIETDHWPGPPSLAAVGTDPRRRSSGREEDEEELLRRRQLQEEQLMKLNSGLGQLILKEEMEKESRERASLASRYDSPLHSASHAPSSKTSSLPGYGKNGLHRPVSTDFAQYNSYGDISGGVRDYQTLPDGHMPAVRMDRGVSMPNMLEPKIFPYEMLMVTNRGRNKILRDVDRTRLERHLAPEVFWEIFGMSIQEFDKLPLWRRNDMKKKAKLF | binds
Clptm1l (protein, UniProt Q8BXA5 1-539) MWSGRSSFTSLVVGVFLVYVVHTCWVMYGIVYTRPCSGDSNCIQPYLALRPKLQLSVYTTTRSSLGAENNVDLILNVEDFDVDSKFERTVNVSVPKKTRNNGTLYAYIFLHHAGILPWQDGKQVHVVSTLTTYMIPKPEEINLLTGESATQQQIEAEKKPSNALDEPVSHWRPRLTLNVMVDDFVFDGSSLPADVHRYMKMIQLGKTVHYLPILFIDQLSNRVKDLMVINRSTTELPLTVSYDKISLGRLRFWIHMQDAVYSLQQFGFSEKDADELKGIFVDTNLYLLALTFFVAAFHLLFDFLAFKSDISFWKKKKSMIGMSTKAVLWRCFSTVVIFLFLLDEQTSLLVLIPAGVGAAIELWKVKKALKITVAWRGLRPVFQFGTHSESERKTEKYDAQAMKYLSYLLYPLCVGGAVYSLLNIKYKSWYSWLINSFVNGVYAFGFLFMLPQLFVNYKMKSVAHLPWKAFTYKAFNTFIDDVFAFIITMPTSHRLACFRDDVVFLVYLYQRWLYPVDKSRVNEFGESYEEQPKRKPHPD | binds
